# Measurements: US20230390392A1
# No constants are given. Whether binding was seen depends on the method and setting. Some entries that bind do so weakly or less than the wild type.
# T1: CD70 (UniProt P32970)
# T1 sequence (looked up): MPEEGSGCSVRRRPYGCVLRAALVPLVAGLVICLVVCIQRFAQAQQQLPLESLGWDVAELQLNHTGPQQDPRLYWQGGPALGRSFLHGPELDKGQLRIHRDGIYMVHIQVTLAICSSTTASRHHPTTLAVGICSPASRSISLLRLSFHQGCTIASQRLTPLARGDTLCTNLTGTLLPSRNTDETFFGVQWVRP
# Target: T1, CD70
# Assay: flow cytometry, full IgG1 on CD70-expressing cell lines (data not shown)
row,binding,Binder
1,binds,"58 binder formatted as full IgG1 (antibody, V domains shown) VH: QVQLVQSGAEVKKPGASVKVSCKASGYTFTSYDINWVRQAPGQGLEWMGVINPSGGGTSYAQKFQGRVTMTRDTSTSTVYMELSSLRSEDTAVYYCARYSGYDWVFDYWGQGTLVTVSS VL: DIQMTQSPSSLSASVGDRVTITCRASQGIGSWLAWYQQKPGKAPKLLIYAASTLQSGVPSRFSGSGSGTDFTLTISSLQPEDFATYYCQQSYSTPWTFGPGTKVDIK"
2,binds,"71 binder formatted as full IgG1 (antibody, V domains shown) VH: QVQLVQSGAEVKKPGASVKVSCKASGYTFTSYDINWVRQAPGQGLEWMGVISPSGGGTSYAQKFQGRVTMTRDTSTSTVYMELSSLRSEDTAVYYCARYYGGNPEGWYFDLWGRGTLVTVSS VL: DIQMTQSPSSLSASVGDRVTITCRASQSIGNWLAWYQQKPGKAPKLLIYDASDLETGVPSRFSGSGSGTDFTLTISSLQPEDFATYYCQQSYTTPWTFGQGTKVEIK"
